Measured values taken from paper PMC7498005.
No constants are given. Whether binding was seen depends on the method and setting. Some results given as binding are weak or reduced against the parent protein; the word gives no strength.

The chains behind the UniProt entries cited, without tags or fusion partners. Where a name states a change or a piece, a line headed by the entry shows the natural chain unless it says otherwise. A line that says so, or that is headed by a name, gives the form on record, which may keep a tag or linker. Residues count along the entry.
UniProt Q99IB8, residues 1031-1661: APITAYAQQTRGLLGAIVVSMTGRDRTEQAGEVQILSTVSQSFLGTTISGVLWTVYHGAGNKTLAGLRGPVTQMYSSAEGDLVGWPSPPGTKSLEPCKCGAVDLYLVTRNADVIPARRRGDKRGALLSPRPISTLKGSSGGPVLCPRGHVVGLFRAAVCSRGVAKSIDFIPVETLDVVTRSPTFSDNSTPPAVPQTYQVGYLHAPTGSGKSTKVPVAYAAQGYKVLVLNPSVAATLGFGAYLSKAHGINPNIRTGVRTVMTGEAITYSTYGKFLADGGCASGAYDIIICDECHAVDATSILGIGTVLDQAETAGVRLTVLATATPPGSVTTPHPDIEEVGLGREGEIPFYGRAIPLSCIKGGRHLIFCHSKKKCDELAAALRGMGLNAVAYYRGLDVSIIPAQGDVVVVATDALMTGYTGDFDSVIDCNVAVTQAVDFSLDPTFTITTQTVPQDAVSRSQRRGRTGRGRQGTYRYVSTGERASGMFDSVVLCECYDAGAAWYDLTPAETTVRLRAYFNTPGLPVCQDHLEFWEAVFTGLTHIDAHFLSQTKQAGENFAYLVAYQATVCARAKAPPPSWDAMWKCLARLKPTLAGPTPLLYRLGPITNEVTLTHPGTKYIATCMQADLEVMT
UniProt O95197: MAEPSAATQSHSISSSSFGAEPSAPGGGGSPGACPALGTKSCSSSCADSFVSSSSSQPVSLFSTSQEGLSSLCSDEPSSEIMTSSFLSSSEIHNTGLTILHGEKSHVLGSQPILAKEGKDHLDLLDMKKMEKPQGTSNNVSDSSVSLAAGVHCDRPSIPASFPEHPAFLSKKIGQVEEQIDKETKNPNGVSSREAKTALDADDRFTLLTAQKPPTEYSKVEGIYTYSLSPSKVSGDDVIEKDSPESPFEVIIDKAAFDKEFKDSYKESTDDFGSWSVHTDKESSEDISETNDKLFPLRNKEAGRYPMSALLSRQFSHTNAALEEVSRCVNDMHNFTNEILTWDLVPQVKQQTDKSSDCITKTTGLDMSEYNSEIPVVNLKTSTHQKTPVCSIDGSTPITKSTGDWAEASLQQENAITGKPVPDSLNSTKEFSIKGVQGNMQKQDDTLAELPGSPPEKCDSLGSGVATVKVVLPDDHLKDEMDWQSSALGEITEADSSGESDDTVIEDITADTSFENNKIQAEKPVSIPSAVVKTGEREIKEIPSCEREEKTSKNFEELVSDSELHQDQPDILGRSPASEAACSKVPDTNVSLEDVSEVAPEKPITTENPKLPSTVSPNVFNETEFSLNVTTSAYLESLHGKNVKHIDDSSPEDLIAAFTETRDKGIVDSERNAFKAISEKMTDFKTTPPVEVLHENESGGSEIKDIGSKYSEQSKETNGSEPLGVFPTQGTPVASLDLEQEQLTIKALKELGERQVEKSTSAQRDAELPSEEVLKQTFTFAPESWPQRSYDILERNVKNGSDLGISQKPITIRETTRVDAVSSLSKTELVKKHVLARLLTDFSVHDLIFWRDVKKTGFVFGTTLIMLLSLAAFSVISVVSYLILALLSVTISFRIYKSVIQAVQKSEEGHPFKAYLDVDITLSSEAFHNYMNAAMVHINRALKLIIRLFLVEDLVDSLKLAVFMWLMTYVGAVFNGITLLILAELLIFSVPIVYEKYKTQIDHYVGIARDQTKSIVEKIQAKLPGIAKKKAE
Reticulon 3 short isoform (RTN3S) (O95197-3, form named): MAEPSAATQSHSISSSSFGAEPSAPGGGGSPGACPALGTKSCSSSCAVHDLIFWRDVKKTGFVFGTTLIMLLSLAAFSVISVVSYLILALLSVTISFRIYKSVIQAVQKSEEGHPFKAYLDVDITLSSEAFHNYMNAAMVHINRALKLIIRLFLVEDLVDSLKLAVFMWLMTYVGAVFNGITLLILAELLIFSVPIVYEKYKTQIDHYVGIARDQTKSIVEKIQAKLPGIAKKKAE

Molecular target: HCV NS3 (genotype 2a, clone JFH1) (Hepatitis C virus genotype 2a (clone JFH1)) (UniProt Q99IB8)
Experiment: RNA ChIP (immunoprecipitation with an anti-dsRNA antibody, Western blot of the precipitate); cells fixed with 4% formaldehyde, lysed in SDS ChIP lysis buffer; 100 ug total protein, 10 ug/ml anti-dsRNA antibody overnight at 4°C, protein A/G agarose; non-specific IgG as IP control; precipitate probed for RTN3L&S and HCV NS3; lysates of Huh7.0, JFH-1 infected Huh7.0 and HCV FL-Replicon cells

## Reticulon 3 long isoform (RTN3L) (from UniProt O95197 1-1032)
  binding: binds

## Reticulon 3 short isoform (RTN3S) (from UniProt O95197-3 1-236)
  binding: binds
